From the supplement of paper PMC10849652
This is one part of the list.

Sequences of proteins named here, by UniProt entry; tags and fusion partners are left off. A change or cut given only in a name is not applied to a line headed by its entry.
UniProt Q2M296: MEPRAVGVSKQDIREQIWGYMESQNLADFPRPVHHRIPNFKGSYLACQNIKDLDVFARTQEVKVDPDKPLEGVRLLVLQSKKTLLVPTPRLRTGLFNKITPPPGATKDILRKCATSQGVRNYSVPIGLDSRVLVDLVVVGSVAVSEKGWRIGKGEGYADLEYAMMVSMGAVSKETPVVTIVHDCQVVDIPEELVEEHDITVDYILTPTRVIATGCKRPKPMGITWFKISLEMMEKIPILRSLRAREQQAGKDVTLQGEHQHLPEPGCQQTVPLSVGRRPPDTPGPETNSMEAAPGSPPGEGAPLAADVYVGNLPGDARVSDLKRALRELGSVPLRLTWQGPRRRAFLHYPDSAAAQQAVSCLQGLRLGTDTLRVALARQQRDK
UniProt G3V1V0: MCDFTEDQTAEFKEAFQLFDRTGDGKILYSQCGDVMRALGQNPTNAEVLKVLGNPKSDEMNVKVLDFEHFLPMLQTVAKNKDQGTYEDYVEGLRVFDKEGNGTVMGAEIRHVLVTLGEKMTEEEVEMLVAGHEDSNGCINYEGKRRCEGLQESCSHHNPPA
UniProt Q96E29: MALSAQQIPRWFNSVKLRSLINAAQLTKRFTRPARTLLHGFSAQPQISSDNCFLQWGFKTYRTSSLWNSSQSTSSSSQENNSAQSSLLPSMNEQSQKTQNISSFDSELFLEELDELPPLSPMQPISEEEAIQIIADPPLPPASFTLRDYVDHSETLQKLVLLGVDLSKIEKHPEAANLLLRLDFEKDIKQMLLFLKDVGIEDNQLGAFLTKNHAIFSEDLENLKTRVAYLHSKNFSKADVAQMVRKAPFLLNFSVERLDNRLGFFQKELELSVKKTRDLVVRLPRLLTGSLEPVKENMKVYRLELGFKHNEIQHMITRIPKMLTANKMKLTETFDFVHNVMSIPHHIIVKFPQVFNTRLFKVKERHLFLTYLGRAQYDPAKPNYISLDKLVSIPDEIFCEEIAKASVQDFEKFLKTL
UniProt P00414, whole entry, looked up: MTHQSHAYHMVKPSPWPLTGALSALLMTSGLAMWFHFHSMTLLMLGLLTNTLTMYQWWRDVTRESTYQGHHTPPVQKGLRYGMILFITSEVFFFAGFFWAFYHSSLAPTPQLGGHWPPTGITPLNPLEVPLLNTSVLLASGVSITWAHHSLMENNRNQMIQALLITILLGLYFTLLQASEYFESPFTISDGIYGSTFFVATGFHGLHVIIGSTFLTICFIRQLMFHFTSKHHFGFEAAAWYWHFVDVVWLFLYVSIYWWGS
MTHFD1, A0A384N5Y3, UniProt A0A384N5Y3, whole entry, looked up: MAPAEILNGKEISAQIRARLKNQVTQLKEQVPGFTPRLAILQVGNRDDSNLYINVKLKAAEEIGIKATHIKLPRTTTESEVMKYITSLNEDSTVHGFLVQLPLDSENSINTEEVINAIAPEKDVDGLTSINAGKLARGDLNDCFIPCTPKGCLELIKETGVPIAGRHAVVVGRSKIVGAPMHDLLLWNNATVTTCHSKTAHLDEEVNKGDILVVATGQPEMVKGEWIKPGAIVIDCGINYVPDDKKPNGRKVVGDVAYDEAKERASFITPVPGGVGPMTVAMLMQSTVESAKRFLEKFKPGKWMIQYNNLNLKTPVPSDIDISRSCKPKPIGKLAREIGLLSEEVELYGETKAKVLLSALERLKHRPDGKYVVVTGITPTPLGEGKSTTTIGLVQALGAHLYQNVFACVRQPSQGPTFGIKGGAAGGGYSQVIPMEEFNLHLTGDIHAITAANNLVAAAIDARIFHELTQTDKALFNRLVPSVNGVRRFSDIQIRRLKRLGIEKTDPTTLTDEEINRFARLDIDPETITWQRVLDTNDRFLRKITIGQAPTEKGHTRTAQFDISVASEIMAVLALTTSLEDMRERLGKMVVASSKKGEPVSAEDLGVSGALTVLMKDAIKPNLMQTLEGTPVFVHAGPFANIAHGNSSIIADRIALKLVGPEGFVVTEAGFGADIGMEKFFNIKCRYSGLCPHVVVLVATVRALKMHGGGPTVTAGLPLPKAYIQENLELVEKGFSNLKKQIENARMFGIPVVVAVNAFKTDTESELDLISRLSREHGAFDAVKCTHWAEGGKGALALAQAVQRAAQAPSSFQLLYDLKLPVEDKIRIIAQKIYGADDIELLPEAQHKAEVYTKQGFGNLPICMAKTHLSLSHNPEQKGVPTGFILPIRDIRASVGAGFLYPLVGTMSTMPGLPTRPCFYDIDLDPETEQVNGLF
UniProt P11586, whole entry, looked up: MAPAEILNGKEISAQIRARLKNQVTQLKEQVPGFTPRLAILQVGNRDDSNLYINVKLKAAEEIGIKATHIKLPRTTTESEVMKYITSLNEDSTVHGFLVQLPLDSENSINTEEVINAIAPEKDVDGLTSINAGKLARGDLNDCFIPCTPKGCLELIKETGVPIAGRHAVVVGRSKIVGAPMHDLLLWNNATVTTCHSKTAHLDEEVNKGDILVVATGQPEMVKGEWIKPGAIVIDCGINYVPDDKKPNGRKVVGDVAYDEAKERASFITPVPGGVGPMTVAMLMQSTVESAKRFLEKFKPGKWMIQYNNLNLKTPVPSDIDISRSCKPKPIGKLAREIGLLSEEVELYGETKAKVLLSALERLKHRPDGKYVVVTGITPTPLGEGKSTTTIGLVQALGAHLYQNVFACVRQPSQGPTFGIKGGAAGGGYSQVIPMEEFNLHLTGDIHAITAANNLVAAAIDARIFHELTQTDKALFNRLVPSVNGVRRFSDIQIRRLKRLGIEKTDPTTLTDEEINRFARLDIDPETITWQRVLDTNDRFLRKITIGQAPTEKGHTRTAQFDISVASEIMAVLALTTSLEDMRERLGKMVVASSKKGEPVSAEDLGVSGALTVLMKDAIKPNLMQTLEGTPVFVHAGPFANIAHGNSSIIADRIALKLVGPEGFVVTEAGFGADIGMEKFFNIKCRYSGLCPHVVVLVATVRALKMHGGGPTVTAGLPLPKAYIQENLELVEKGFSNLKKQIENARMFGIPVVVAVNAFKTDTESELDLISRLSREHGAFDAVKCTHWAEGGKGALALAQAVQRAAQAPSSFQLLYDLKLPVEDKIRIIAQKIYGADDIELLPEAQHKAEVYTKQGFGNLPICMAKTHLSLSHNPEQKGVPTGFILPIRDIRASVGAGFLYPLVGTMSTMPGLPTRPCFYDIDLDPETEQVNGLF
UniProt Q8NCE2: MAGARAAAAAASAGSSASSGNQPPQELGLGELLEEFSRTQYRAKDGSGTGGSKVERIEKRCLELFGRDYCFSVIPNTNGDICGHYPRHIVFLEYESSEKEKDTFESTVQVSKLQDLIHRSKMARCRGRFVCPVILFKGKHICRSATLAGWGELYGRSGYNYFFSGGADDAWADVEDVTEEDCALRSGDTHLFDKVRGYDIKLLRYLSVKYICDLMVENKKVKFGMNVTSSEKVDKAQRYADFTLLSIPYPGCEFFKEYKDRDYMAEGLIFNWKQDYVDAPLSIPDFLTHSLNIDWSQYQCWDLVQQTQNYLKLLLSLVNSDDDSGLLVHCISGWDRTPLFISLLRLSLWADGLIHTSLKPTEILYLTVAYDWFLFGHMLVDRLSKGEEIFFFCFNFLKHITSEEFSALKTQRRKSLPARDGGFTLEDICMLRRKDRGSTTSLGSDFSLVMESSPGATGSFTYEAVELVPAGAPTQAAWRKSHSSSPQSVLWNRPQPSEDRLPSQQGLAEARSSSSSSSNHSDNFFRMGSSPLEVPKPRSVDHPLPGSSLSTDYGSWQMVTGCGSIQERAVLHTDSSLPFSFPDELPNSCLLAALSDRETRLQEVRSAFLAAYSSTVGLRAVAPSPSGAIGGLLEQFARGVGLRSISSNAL
UniProt P13640: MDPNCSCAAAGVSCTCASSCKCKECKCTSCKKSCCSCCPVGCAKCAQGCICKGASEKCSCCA
UniProt Q9H019: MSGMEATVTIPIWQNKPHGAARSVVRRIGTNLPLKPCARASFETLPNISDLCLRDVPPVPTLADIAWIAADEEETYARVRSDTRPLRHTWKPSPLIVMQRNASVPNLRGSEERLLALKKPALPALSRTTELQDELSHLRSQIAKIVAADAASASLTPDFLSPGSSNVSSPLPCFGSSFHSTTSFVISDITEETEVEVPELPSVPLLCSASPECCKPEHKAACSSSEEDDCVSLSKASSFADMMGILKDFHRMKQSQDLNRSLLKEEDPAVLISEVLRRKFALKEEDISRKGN
UniProt Q9NYA4: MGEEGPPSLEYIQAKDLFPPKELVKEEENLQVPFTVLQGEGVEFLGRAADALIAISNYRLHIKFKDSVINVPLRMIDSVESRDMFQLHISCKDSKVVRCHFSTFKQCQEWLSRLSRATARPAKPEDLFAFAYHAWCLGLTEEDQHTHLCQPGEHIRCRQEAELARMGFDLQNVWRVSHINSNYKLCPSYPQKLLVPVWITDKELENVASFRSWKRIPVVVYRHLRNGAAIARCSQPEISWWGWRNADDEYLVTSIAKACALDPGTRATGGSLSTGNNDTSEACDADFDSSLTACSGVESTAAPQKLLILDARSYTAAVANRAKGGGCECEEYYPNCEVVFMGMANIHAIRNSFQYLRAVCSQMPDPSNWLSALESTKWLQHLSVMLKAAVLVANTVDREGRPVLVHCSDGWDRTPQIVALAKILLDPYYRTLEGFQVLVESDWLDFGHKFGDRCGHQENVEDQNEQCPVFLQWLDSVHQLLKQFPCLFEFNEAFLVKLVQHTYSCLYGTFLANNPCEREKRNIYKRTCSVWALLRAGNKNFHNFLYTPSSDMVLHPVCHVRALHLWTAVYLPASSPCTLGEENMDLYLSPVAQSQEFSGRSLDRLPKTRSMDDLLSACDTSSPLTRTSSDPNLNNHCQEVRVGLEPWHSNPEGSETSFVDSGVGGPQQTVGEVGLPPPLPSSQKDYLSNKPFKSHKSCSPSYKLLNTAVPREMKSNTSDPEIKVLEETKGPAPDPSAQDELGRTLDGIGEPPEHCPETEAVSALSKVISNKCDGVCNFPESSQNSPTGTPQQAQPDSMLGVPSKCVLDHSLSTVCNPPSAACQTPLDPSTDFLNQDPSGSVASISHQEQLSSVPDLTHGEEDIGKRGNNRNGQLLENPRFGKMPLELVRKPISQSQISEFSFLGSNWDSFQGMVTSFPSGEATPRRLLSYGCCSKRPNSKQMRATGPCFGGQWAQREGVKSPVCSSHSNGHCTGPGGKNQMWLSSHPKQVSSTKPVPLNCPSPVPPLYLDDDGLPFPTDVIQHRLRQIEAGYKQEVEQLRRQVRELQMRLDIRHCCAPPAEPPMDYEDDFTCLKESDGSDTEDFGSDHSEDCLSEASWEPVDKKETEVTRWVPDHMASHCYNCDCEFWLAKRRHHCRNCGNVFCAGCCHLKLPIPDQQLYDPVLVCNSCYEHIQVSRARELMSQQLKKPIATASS
UniProt Q7Z6M4: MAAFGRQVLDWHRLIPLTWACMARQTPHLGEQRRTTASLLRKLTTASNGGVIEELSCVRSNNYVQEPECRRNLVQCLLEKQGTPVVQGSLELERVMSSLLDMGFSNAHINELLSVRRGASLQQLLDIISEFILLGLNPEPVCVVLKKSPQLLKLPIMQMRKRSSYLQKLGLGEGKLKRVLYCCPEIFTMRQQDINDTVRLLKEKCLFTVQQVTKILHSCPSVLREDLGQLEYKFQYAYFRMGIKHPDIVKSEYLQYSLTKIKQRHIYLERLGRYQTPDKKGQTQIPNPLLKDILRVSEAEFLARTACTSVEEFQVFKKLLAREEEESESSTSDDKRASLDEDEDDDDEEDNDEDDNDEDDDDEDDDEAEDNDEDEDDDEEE
UniProt Q9Y2Z2: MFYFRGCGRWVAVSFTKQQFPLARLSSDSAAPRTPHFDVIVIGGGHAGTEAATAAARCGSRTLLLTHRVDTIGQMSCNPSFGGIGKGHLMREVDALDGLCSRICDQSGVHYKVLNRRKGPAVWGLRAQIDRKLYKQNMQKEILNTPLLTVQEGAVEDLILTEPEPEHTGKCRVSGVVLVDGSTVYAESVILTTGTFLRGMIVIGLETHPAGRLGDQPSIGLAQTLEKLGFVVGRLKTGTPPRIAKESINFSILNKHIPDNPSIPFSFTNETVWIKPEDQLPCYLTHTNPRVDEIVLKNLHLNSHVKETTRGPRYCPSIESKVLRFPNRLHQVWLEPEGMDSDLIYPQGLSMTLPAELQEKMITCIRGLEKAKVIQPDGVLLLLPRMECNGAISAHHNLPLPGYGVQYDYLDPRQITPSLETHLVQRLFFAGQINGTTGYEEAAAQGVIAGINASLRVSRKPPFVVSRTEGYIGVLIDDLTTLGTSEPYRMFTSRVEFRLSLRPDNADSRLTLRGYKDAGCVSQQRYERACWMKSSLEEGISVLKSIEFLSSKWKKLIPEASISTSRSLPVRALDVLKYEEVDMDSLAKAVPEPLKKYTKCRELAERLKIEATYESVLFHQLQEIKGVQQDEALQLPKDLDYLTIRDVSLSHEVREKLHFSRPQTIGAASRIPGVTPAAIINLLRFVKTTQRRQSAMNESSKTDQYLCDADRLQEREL

The targets below were run with CC1=C(C=C(C=C1)NC(=O)C2=CC(=CC=C2)N(C)C)NC(=O)C3=CC=C(C=C3)O (assay: log2 fold change, soluble protein after heating vs DMSO (PISA); higher = thermal stabilisation; K562 cells, 10 uM, 30 min; active = over 0.2 and 3.5 SD of the protein, either way, in both replicates (recomputed)).
How it was run: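 Aliquots of K562 cells (2×10^6 cells/mL) treated with 10 μM compound for 30 min were heated for 3 min over 48°C-58°C. After pooling and extraction in PBS with 0.5% NP-40 at 4°C, soluble protein from a 21,000xg, 90 min spin was quantified by TMTpro 16plex LC-MS/MS with channel sums equalised. Thermal stability is expressed against control samples, from duplicates, as a log2 fold change.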
In the case of MXRA8 isoform 2 (UniProt Q9BRK3), the log2 fold change is reported as inactive: 0.235. MUC7 (UniProt Q8TAX7) was tested, and the log2 fold change was inactive: -0.269. With MT-ND1 (UniProt P03886) the log2 fold change was inactive: 0.028. MTHFSD isoform 3 (UniProt Q2M296) was tested, and the log2 fold change was inactive: 0.031. With MYL6 (UniProt G3V1V0) the log2 fold change was inactive: 0.003. With MRPS15 (UniProt P82914) the log2 fold change was inactive: -0.026. In the case of MYO18B isoform 3 (UniProt Q8IUG5), the log2 fold change is reported as inactive: 0.014. In the case of MTERF3 (UniProt Q96E29), the log2 fold change is reported as inactive: 0.068. With MT-CO3 (UniProt P00414) the log2 fold change was inactive: 0.026. With MRPS14 (UniProt O60783) the log2 fold change was inactive: 0.002. For MTHFD1, A0A384N5Y3, the log2 fold change was inactive: -0.107. In the case of MTHFD1 (UniProt P11586), the log2 fold change is reported as inactive: -0.026. For MYLK (UniProt Q15746), the log2 fold change was inactive: 0.108. In the case of MRPS18C (UniProt Q9Y3D5), the log2 fold change is reported as inactive: -0.038. With MTMR14 (UniProt Q8NCE2) the log2 fold change was inactive: -0.048. For MT-CO1 (UniProt P00395), the log2 fold change was inactive: 0.025. In the case of MT1G (UniProt P13640), the log2 fold change is reported as inactive: 0.068. In the case of MTFR1L (UniProt Q9H019), the log2 fold change is reported as inactive: -0.006. MRPS16 (UniProt Q9Y3D3) was tested, and the log2 fold change was inactive: -0.052. In the case of MRPS21 (UniProt P82921), the log2 fold change is reported as inactive: -0.059. With MTMR1 (UniProt Q13613) the log2 fold change was inactive: 0.067. For MTMR4 (UniProt Q9NYA4), the log2 fold change was inactive: 0.061. In the case of MRPS26 (UniProt Q9BYN8), the log2 fold change is reported as inactive: -0.083. With MTERF4 (UniProt Q7Z6M4) the log2 fold change was inactive: -0.251. MTO1 isoform 6 (UniProt Q9Y2Z2) was tested, and the log2 fold change was inactive: -0.021.
